The source of these data is publication PMC5668017.

Experiment [1] addresses T1, c-Jun (human (endogenous in Hep-2)), P05412.
T1 chain: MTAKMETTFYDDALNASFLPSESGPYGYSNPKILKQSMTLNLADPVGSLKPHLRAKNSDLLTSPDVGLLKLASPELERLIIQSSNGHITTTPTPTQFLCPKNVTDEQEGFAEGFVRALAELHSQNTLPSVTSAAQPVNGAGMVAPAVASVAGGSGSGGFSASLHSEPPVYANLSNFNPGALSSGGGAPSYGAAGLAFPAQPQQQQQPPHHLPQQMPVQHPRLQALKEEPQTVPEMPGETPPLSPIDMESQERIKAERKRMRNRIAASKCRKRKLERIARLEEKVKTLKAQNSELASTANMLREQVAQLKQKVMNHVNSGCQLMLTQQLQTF
Kind of experiment: co-IP; cells from Hep-2/R xenografts (LV-control or LV-miR-26b) of nude mice treated with cisplatin 2 mg/kg. The settings on record: remark: other sources report otherwise.

Experiment [2] deals with T1, c-Jun (human (endogenous in Hep-2)), …. Nature of the experiment: co-IP; lysates (RIPA buffer) of cultured Hep-2 and Hep-2/R cells treated with 10 uM cisplatin, with or without transfection of miR-26b and ATF2 plasmid; c-Jun antibody at 4 °C overnight, protein G agarose beads, western blot. To be noted: remark: other sources report otherwise. Background: A western blot detects proteins with antibodies after separation by electrophoresis.

Results are given in words; binding and its absence hold for the method and conditions named. Binding seen in cells or lysates may run through a third protein. Some results given as binding are weak or reduced against the parent protein; the word gives no strength.

B1: activating transcription factor 2 (ATF2), P15336 1-505 (protein)
chain: MKFKLHVNSARQYKDLWNMSDDKPFLCTAPGCGQRFTNEDHLAVHKHKHEMTLKFGPARNDSVIVADQTPTPTRFLKNCEEVGLFNELASPFENEFKKASEDDIKKMPLDLSPLATPIIRSKIEEPSVVETTHQDSPLPHPESTTSDEKEVPLAQTAQPTSAIVRPASLQVPNVLLTSSDSSVIIQQAVPSPTSSTVITQAPSSNRPIVPVPGPFPLLLHLPNGQTMPVAIPASITSSNVHVPAAVPLVRPVTMVPSVPGIPGPSSPQPVQSEAKMRLKAALTQQHPPVTNGDTVKGHGSGLVRTQSEESRPQSLQQPATSTTETPASPAHTTPQTQSTSGRRRRAANEDPDEKRRKFLERNRAAASRCRQKRKVWVQSLEKKAEDLSSLNGQLQSEVTLLRNEVAQLKQLLLAHKDCPVTAMQKKSGYHTADKDDSSEDISVPSSPHTEAIQHSSVSTSNGVSSTSKAEAVATSVLTQMADQSTEPALSQIVMAPSSQSQPSGS
As for B1, the binding entry in experiment [1] and in experiment [2] was “binds” in each case.
